According to article PMC6516669:
These are yes or no findings as the source states them, for the method shown. Binding seen in cells or lysates may run through a third protein. Some binding calls cover weakened binding; strength is not graded here.

Assays:
[1] = molecular target: T1, Bradykinin B2 receptor (rat (endogenous in RASMC)) (UniProt P25023); assay: proximity ligation; in-situ PLA (Duolink), dual receptor recognition with anti-B2R and anti-TP primary antibodies on fixed (4% paraformaldehyde), permeabilised (0.5% Triton X-100) RASMC; cells untreated or stimulated for 10 min with BK 10^-11 M, IBOP 10^-7 M, BK 10^-11 M + IBOP 10^-7 M, or BK 10^-7 M; blobs counted per cell with BlobFinder
T1 sequence: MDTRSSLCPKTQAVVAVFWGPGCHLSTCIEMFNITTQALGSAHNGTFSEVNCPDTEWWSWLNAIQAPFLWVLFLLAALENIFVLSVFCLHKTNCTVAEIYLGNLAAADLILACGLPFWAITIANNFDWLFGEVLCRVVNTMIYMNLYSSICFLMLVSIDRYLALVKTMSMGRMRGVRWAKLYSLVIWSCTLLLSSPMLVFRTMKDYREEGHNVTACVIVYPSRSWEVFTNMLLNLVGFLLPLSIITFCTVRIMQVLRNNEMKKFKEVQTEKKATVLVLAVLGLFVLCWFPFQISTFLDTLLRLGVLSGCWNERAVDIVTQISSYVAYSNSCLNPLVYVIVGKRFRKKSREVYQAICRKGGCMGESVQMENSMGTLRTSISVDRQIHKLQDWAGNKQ

[2] = molecular target: T1, Bradykinin B2 receptor (rat (endogenous in RASMC)); assay: co-IP; anti-B2R cross-linked (DMP) to protein A Dynabeads, incubated with NP40 lysates of RASMC (1% NP40, 150 mM NaCl, pH 7.4); eluates blotted with anti-TP, then anti-B2R; cells untreated or stimulated for 10 min with BK 10^-11 M, IBOP 10^-7 M, or BK 10^-11 M + IBOP 10^-7 M; controls: mock beads without antibody, and antibody beads with PBS

binding [1]: binds
binding [2]: binds
B1: Thromboxane prostanoid receptor (receptor, UniProt P34978 1-341)
chain: MWLNSTSLGACFRPVNITLQERRAIASPWFAASFCALGLGSNLLALSVLAGARPGAGPRSSFLALLCGLVLTDFLGLLVTGAVVASQHAALLDWRATDPGCRLCHFMGAAMVFFGLCPLLLGAAMAAERFVGITRPFSRPAATSRRAWATVGLVWVGAGTLGLLPLLGLGRYSVQYPGSWCFLTLGAERGDVAFGLMFALLGSVSVGLSLLLNTVSVATLCRVYHAREATQRPRDCEVEMMVQLVGIMVVATVCWMPLLVFILQTLLQTLPVMSPSGQLLRTTERQLLIYLRVATWNQILDPWVYILFRRSVLRRLHPRFTSQLQAVSLHSPPTQAMLSGP
